Test: Concentration-dependent radiolabeling with [^227Th]Th^4+ (iTLC)
Details: for ligand concentration at which ^227Th is bound (as low as): within 30 min, room temperature, pH 5

Compound: O=c1cccc(CN2CCN(Cc3cccc(=O)n3O)CCN(Cc3cccc(=O)n3O)CCN(Cc3cccc(=O)n3O)CC2)n1O [MeDOTHOPO, 1,4,7,10-tetraazacyclododecane-1,4,7,10-tetra(methylene)tetrakis(1-hydroxy-2-pyridinone)]
- ligand concentration at which ^227Th is bound (as low as): 10^−6 M

Compound: O=C(O)CN1CCN(CC(=O)O)CCN(CC(=O)O)CCN(CC(=O)O)CC1 [DOTA, 1,4,7,10-tetraazacyclododecane-N,N′,N″,N″-1,4,7,10-tetraacetic acid, reference compound]
- incorporation of [^227Th]Th^4+ (highest tested concentration of 10^−4 M): partial incorporation

Compound: O=C(c1cccc(=O)n1O)N1CCN(C(=O)c2cccc(=O)n2O)CCN(C(=O)c2cccc(=O)n2O)CCN(C(=O)c2cccc(=O)n2O)CC1 [DOTHOPO]
- ligand concentration at which ^227Th is bound (as low as): 10^−6 M

From patent US20260192003A1, “CHELATING COMPOUNDS AND METHODS OF USES THEREOF” (THE REGENTS OF THE UNIVERSITY OF CALIFORNIA, priority 2023, published 2026)
